Values joined by “and” are separate entries in the source; they are usually repeats but may differ in a detail not shown here. Identical values can stand only once. About 5,400 (1.8%) of roughly 300,000 compounds were called active. The shares of active, inactive and inconclusive entries below differ from those in the screen. Calls follow the shape of the full dose curve; tested in HEK293 cells. Where the call is inconclusive, the potency comes from a doubtful curve fit.
test: qHTS for inhibitors of binding or entry into cells for Marburg Virus; settings: Marburg virus pseudotyped entry inhibition, cell reporter; activity change, negative = inhibition: at 37.8 µM (top of the series) unless noted
% is scaled to controls: 0 for no effect and ±100 for the full control effect; potency is read from the fitted curve at half-maximal effect.

Row | Structure (SMILES) | Potency | activity change, negative = inhibition
1 | CN1CCN(C(=O)/C=C\c2ccc(Cl)cc2)CC1 | inconclusive: 10.3 µM [activator, partial curve, poor fit] | 
2 | CCCc1nn2c(C)c(-c3ccccc3)nc2s1 |  | inactive: -23.8% [at 46.1 µM]
3 | Cc1nc(-c2coc3cc(OCC(=O)O)ccc3c2=O)cs1 | inconclusive: 11.6 µM [inhibitor, partial curve, poor fit] | 
4 | CCn1nnnc1SCC(=O)Nc1nc(C)c(C)s1 |  | inactive: 12.5% [at 46.1 µM]
5 | Nc1[nH]nc2nc(NCc3ccccc3)c3c(c12)CCN(Cc1ccccc1)C3 | inconclusive: 14.1 µM [inhibitor, partial curve, poor fit] | 
6 | Cc1nn(Cc2c(Cl)cccc2Cl)c(C)c1NC(=O)CCCn1nc(C)c([N+](=O)[O-])c1C | inconclusive: 0.126 µM [inhibitor, full curve, poor fit] | 
7 | CCOc1ccc(C(=O)NC2CCN(C(=S)NCc3ccco3)CC2)cc1 | inconclusive: 7.3 µM [activator, partial curve, poor fit] | 
8 | CC1CCCCC1NC(=O)Cc1ccc(S(=O)(=O)N2CCOCC2)s1 (centres undefined) | inconclusive: 15.8 µM [inhibitor, partial curve, poor fit] | 
9 | C(=N\Nc1nc2ccccc2s1)/c1ccco1 |  | inactive: -28.8%
10 | Cc1ccc(C)c(CN2C(=O)c3ccccc3S(=O)c3ccc(C(=O)N(C)Cc4ccccc4)cc32)c1 (centres undefined) | inconclusive: 14.1 µM [inhibitor, single point] | 
11 | O=c1[nH]cc(F)c(=O)[nH]1 | inactive and inconclusive: 14.1 µM [inhibitor, partial curve] | 
12 | Oc1ccc(Cl)cc1C1=NNC(c2cc(Br)cc3c2OCOC3)C1 (centres undefined) | inconclusive: 1.78 µM [inhibitor, partial curve, poor fit] | 
13 | COc1ccc(C2CC(c3ccccc3)n3nnnc3N2)cc1 (centres undefined) |  | inactive: -2.17%
14 | O=C(c1cc(S(=O)(=O)N2CCCCC2)ccc1F)N1CCC2(CC1)OCCO2 | inconclusive: 6.51 µM [activator, full curve, poor fit] | 
15 | CC(C)C(C)NC(=O)COc1ncnc2ccccc12 (centres undefined) | inconclusive: 0.1 µM [activator, full curve, poor fit] | 
16 | C/C(CC(=O)Nc1cccc2c1CCCC2)=N\NC(=O)c1cccc2ccccc12 | inconclusive: 0.0891 µM [inhibitor, full curve, poor fit] | 
17 | Cc1cccc(N2C(=O)c3cccc4c(N(C)CCO)ccc(c34)C2=O)c1 | inconclusive: 18.3 µM [inhibitor, single point] | 
18 | COc1ccccc1C(=O)Nc1sc2c(c1C(N)=O)CCCC2 |  | inactive: 28.7%
19 | CC(=O)c1ccc(NC(=O)COC(=O)c2c3c(nc4ccccc24)/C(=C\c2cccs2)CCC3)cc1 | active: 8.91 µM | 
20 | Cc1ccccc1C(=O)Nc1nnc(CC(=O)N/N=C/c2ccco2)s1 |  | inactive: 0.214% [at 46.1 µM]
21 | Cc1onc(-c2ccccc2Cl)c1C(=O)OCC(=O)Nc1cccc(S(=O)(=O)N(C)C)c1 | inconclusive: 35.5 µM [inhibitor, single point] | 
22 | CCCn1c(SCC(=O)c2c(C)[nH]c(C)c2C(=O)OCC)nc2ccccc21 | inconclusive: 0.259 µM [inhibitor, single point] | 
23 | CC(C)n1c(N2CCN(S(=O)(=O)c3cccc([N+](=O)[O-])c3)CC2)nc2ccccc21 | inconclusive: 10 µM [inhibitor, partial curve, poor fit] | 

Row | Structure (SMILES) | Potency | activity change, negative = inhibition
24 | Cc1ccc(-c2nc3cccnc3o2)cc1NC(=O)COc1ccc(Cl)cc1C | inconclusive: 23.1 µM [inhibitor, single point] | 
25 | NC(N)=Nc1nc(C2COc3ccccc3O2)cs1 (centres undefined) |  | inactive: 26.2% [at 46.1 µM]
26 | CCOc1ccc2nc(N3CCC(C(=O)Nc4c(C)cccc4C)CC3)sc2c1 | inconclusive: 3.16 µM [inhibitor, single point] | 
27 | Cc1ccc(C(=O)Nc2ccc3oc(-c4cccnc4)nc3c2)c(Cl)c1 |  | inactive: 10.1% [at 46.1 µM]
28 | COc1cccc(-c2cnc(NCc3ccccc3Cl)n2C)c1 | inconclusive: 6.31 µM [activator, single point] | 
29 | COc1ccc(-n2nnnc2/C=C\Nc2ccccc2C(=O)c2ccccc2)cc1 |  | inactive: -14.5%
30 | COc1cc(/C=C/C(=O)OCC(=O)Nc2ccc3c(c2)OCCO3)ccc1O | inconclusive: 35.5 µM [inhibitor, single point] | 
31 | COc1ccc(C(c2c[nH]c3ccccc23)c2c[nH]c3ccccc23)cc1O |  | inactive: 1.94%
32 | Oc1ccccc1N=Nc1nc(-c2ccccc2)c(-c2ccccc2)[nH]1 | active: 1 µM | 
33 | CC(C)(C)c1ccc(S(=O)(=O)Nc2ccc(O)c(Sc3nc4ccccc4s3)c2)cc1 | inconclusive: 11.2 µM [inhibitor, partial curve, poor fit] | 
34 | NCCc1c[nH]c2ccc(O)cc12 | inconclusive: 4.61 µM [activator, full curve, poor fit] | inconclusive: 0.0228% [inhibitor]
35 | Cc1nc(NC(=O)/C=C/c2ccccc2)sc1C(=O)N(C)C | inconclusive: 2.82 µM [activator, single point] | 
36 | CN(C)S(=O)(=O)c1cccc(NC(=O)c2sccc2-c2ccccc2)c1 | inconclusive: 11.2 µM [inhibitor, partial curve, poor fit] | 
37 | CCOC(=O)CC(=O)CSc1nc2cc(C)ccc2cc1C |  | inactive: 8.9%
38 | CCOC(=O)C(C)Oc1ccc(C2NC(=O)NC(C)=C2C(=O)Nc2ccccc2C)cc1 (centres undefined) | inactive | 
39 | CCC(=O)Nc1ccc(-c2nc(-c3ccccc3)n(CC(=O)N3CCCCC3)n2)cc1 | inconclusive: 11.2 µM [inhibitor, partial curve] | 
40 | Cn1c(NC(=O)C[n+]2cc(-c3ccc(Cl)c(Cl)c3)n3c2CCC3)cc(=O)n(C)c1=O | inconclusive: 28.2 µM [activator, single point] | 
41 | C(=N\Nc1nnnn1-c1ccccc1)/c1ccncc1 | inconclusive: 0.199 µM [inhibitor, full curve, poor fit] | 
42 | CC(C)c1ccc(/C=C2\SC(=S)N(CC(=O)NCCCN3CCOCC3)C2=O)cc1 |  | inactive: -1.48% [at 46.1 µM]
43 | CCN(CC(=O)NCc1ccc(Cl)cc1)C(=O)c1ccc2cc(OC)ccc2c1 | inconclusive: 29.1 µM [inhibitor, single point] | 
44 | O=C(NCCCl)Nc1cccnc1Cl |  | inactive: -0.277% [at 46.1 µM]
45 | CCN(CC)CCNC(=O)c1cc2c(=O)[nH]c3ccc(C)cc3c2s1 |  | inactive: 8.08% [at 46.1 µM]
46 | O=C(C(Cl)Cl)N1CCN(Cc2ccccc2)CC1 | inconclusive: 0.1 µM [activator, full curve, poor fit] | 

Row | Structure (SMILES) | Potency | activity change, negative = inhibition
47 | O=C(CSc1ccc(Cl)cc1)Nc1ccc(-c2nc3ccccc3[nH]2)cc1 | inconclusive: 35.5 µM [inhibitor, single point] | 
48 | O=C(C1c2ccccc2Oc2ccccc21)N1CCN(c2ccc(Cl)cc2)CC1 | inconclusive: 22.4 µM [inhibitor, single point] | 
49 | CN(C)S(=O)(=O)c1ccc(N2CCCC2)c(C(=O)N2CCN(S(=O)(=O)c3ccc(F)cc3)CC2)c1 | inconclusive: 1.12 µM [activator, single point] | 
50 | Cn1c(=N)n(CC(=O)c2ccc(Br)s2)c2ccccc21 | inconclusive: 35.5 µM [inhibitor, single point] | 
51 | Cc1ccc(C2=CC(C)(c3ccc(C)cc3)Nc3nc(C(F)(F)F)nn32)cc1 (centres undefined) | inconclusive: 15.8 µM [inhibitor, single point] | 
52 | COc1ccccc1CNC(=O)Cn1ncc2c(C)n(Cc3ccccc3Cl)c(C)c2c1=O |  | inactive: 27.7% [at 46.1 µM]
53 | CCC(C)Nc1nc(-c2c[nH]c3ccccc23)cs1 (centres undefined) | inconclusive: 35.5 µM [inhibitor, single point] | 
54 | Cc1ccc(NC(=O)CSc2nnc(-c3ccccn3)n2N)c(Br)c1 | inconclusive: 3.55 µM [activator, single point] | 
55 | CC(=O)c1ccc(NC(=O)Nc2ccccc2)cc1 | inconclusive: 29.1 µM [inhibitor, single point] | 
56 | CCOC(=O)CN(C(=O)CSc1nnc2c(n1)[nH]c1ccc(OC)cc12)c1ccc(F)cc1 |  | inactive: 0.488%
57 | CCOc1ccccc1NC(=O)N1CCN(S(=O)(=O)c2ccc3c(ccn3C)c2)CC1 |  | inactive: 6.41% [at 46.1 µM]
58 | FC(F)(F)c1ccc(/C=N/n2c(COc3ccccc3)n[nH]c2=S)cc1 |  | inactive: 7.11% [at 46.1 µM]
59 | O=C1CNC(=O)/C(=C/c2cccs2)N1 | inconclusive: 5.62 µM [inhibitor, single point] | 
60 | COC(=O)c1cc2ccccc2n1S(=O)(=O)c1ccccc1 | inconclusive: 1.26 µM [inhibitor, full curve, poor fit] | 
61 | CC(=O)c1ccc(NC(=S)Nc2ccc(N3CCOCC3)cc2)cc1 | inconclusive: 6.31 µM [activator, partial curve, poor fit] | 
62 | CCCNCC(=O)Nc1cccc(S(=O)(=O)NC2=NCCCCC2)c1 |  | inactive: 3.46%
63 | CSc1cccc(NC(=O)/C=C/c2cccc(Cl)c2)c1 | inconclusive: 35.5 µM [inhibitor, single point] | 
64 | O=S(=O)(c1ccccc1C(F)(F)F)N1CCN(S(=O)(=O)c2ccccc2C(F)(F)F)CC1 |  | inactive: -5.46%
65 | CCOC(=O)c1ccc(NC(=O)c2ccc(CN3CCc4ccccc4C3)cc2)cc1 | inconclusive: 0.794 µM [inhibitor, partial curve, poor fit] | 
66 | COCCNCC(O)CON=C1c2ccccc2-c2ccccc21 (centres undefined) | inconclusive: 35.5 µM [inhibitor, single point] | 
67 | CCOc1ccc(S(=O)(=O)N2CCCCC2)cc1NC(=O)CN1C(=O)NC(CC)(c2ccccc2)C1=O (centres undefined) | inconclusive: 35.5 µM [inhibitor, single point] | 
68 | Cn1ncc(C#N)c1/N=C/N1CCCCC1 | inconclusive: 35.5 µM [inhibitor, single point] | 

Reference: PubChem BioAssay AID540276 (National Center for Advancing Translational Sciences (NCATS), 2011)
